In patent US7671085B2, “Non-steroidal farnesoid X receptor modulators and methods for the use thereof” (The Salk Institute for Biological Studies, priority 2002, dated 2010):
Some entries share one result that the patent states for a list of compounds.

Target: T1, FXR (Homo sapiens, UniProt Q96RI1)
T1 construct: using a full length FXR on a natural response element; expressed in transfected cells
T1 sequence (Q96RI1 1-486): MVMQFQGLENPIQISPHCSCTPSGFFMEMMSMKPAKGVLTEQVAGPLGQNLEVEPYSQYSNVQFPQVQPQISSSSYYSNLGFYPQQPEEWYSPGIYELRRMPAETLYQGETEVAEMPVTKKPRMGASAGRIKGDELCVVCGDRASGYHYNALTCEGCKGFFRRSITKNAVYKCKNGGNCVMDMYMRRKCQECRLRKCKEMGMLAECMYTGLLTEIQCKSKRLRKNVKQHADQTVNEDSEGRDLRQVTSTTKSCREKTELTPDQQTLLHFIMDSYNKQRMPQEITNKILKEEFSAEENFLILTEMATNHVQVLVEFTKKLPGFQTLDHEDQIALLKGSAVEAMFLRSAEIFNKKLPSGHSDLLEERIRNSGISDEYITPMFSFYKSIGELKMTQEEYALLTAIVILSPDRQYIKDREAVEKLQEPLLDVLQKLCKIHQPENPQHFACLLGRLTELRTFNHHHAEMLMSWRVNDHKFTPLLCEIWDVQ
Test: cell-based FXR transcription assay, FXR responsive promoter linked to luciferase reporter
Conditions: SAR discussion
Description: In addition to ensuring that only cell permeable compounds were selected for further optimization, this approach allows for the detection of FXR activation in a natural system (i.e., correct folding of the protein and in the presence of a complete compliment of co-activators and co-repressors).
The feasibility of creating high throughput screens (HTS) for ORs was explored using FXR as a candidate orphan receptor (OR) with a known activator, chenodeoxycholic acid (CDCA) as a ligand. The screen is based on the co-transfection of a full-length receptor with the reporter vector containing a natural hormone response element under a minimal eukaryotic promoter. […] Using this 384-well format, the high throughput screening (HTS) approach to FXR as a candidate OR was employed. […] A central question in the feasibility studies is whether this library is suitable for screening for nuclear receptor ligands. Samples of this library were first reformatted into a 384-well format and then subjected to the FXR cell-based assays described above and assessed for FXR-mediated transcriptional activity. Cells were exposed to approximately 10 μM of sample for 18 hrs prior to washing and luciferase analysis.
EC50 values were determined with Prism 3.0 software via the activity of the subject compound in the previously described cell based assay.

SMILES | FXR activation, in words
COC(=O)C=Cc1cccc(N(Cc2ccc(C=CC(=O)OC(C)(C)C)cc2OS(C)(=O)=O)C(=O)C2CCCCC2)c1 [Compound 166] | very low biological activity
CCOC(=O)COc1cc(C=CC(=O)OC(C)(C)C)ccc1CN(C(=O)C1CCCCC1)c1cccc(C=CC(=O)OC)c1 [Compound 167] | very low biological activity
COC(=O)C=Cc1cccc(N(Cc2ccc(C=CC(=O)OC(C)(C)C)cc2O)C(=O)C2CCCCC2)c1 [Compound 161] | very low biological activity
COC(=O)C=Cc1cccc(N(Cc2ccc(C=CC(=O)OC(C)(C)C)cc2OCc2ccccc2)C(=O)C2CCCCC2)c1 [Compound 163] | very low biological activity
COC(=O)C=Cc1cccc(N(Cc2ccc(C=CC(=O)OC(C)(C)C)cc2OC(C)=O)C(=O)C2CCCCC2)c1 [Compound 164] | very low biological activity
COC(=O)C=Cc1cccc(N(Cc2ccc(C=CC(=O)OC(C)(C)C)cc2OC)C(=O)C2CCCCC2)c1 [Compound 162] | very low biological activity
COC(=O)C=Cc1cccc(N(Cc2ccc(C=CC(=O)OC(C)(C)C)cc2OC(=O)c2ccccc2)C(=O)C2CCCCC2)c1 [Compound 165] | very low biological activity
